# Assay results: article PMC12040169 (PLOS Biology, 2025)
# The other results are listed elsewhere or left out.
# Tested on: T1, CTL2-GFP (C. trachomatis L2/434/Bu, GFP-expressing)
# T1 construct: L2/434/Bu, GFP-expressing
# Parameters: species or system HeLa; Intracellular C. trachomatis growth in HeLa cells, bulk GFP fluorescence relative to DMSO
# Settings: bulk GFP, single well; 28.5 h, 10 µM; inhibitor
row,Compound,% of control remaining [%]
1,Cc1sc2nc(SCCCC(=O)NCCO)nc(N)c2c1C [CBK264482],113.099
2,CCOC(=O)C(NCc1nc(-c2cccc(C(F)(F)F)c2)no1)C(C)C (centres unmarked) [CBK305445],119.253
3,CC(=O)Nc1ccc(S(=O)(=O)NC2(C(F)(F)F)C(=O)Nc3c2c(=O)[nH]c(=S)n3Cc2ccco2)cc1 (centres unmarked) [CBK268395],137.739
4,O=C(O)C1(Cc2cccc(-c3cccs3)c2)CCCNC1 (centres unmarked) [CBK281688],155.041
5,CCc1ccc2nc3c(cc2c1)CNCCO3 [CBK281940],108.893
6,Cc1ccc(CNC(=O)CSc2nnc(-c3ccncc3)n2-c2ccccc2)cc1 [CBK266654],155.56
7,COc1ccccc1CN(C)C(C)C(=O)Nc1ccc(S(N)(=O)=O)cc1 (centres unmarked) [CBK305839],145.963
8,COc1ccc(-c2cnc(N)c(NC3CCOCC3)n2)c(OC)c1OC [CBK063844],114.9
9,O=C(NCCNc1cnccn1)c1ccc(Br)cc1F [CBK305639],155.032
10,CC(=O)c1ccc(S(=O)(=O)NCC2CC2)cc1 [CBK044440],162.012
11,Cc1nc2ccc(NC(=O)CC3CCN(S(=O)(=O)c4cccc(F)c4)CC3)cc2[nH]1 [CBK285903],108.46
12,O=C(CCc1ccccc1)N1CCC(c2n[nH]c3ncccc23)CC1 [CBK284906],139.973
13,CCN(Cc1ccc(C#N)cc1F)C(=O)C(NC(=O)OC)C(C)C (centres unmarked) [CBK306372],127.293
14,CCN(Cc1ccncc1)C(CC1CCCCC1)c1ccccc1 (centres unmarked) [CBK061639T],79.5929
15,Cc1ccc(C(=O)CCC(=O)N2CCCC2c2ccc(F)cc2)cc1 (centres unmarked) [CBK297885],128.522
16,Nc1ncc(-c2ccc(N3CCOCC3)cc2)nc1N1CCN(CCO)CC1 [CBK063394],134.797
17,O=C(Cc1c(O)c2ccccc2[nH]c1=O)NCc1ccc(Cl)cc1 [CBK160317],104.894
18,CCc1nn(CC(=O)N2CCC(C)CC2)c(=O)c2cc3occc3n12 [CBK283675],169.243
19,Cc1ccc(-c2cc(C(=O)Nc3ccc(S(N)(=O)=O)cc3)c3ccc(Cl)c(C)c3n2)cc1 [CBK267745],99.8477
20,COc1ccc(NCc2cc3sccc3n2C)cc1OC [CBK283486],130.213
21,O=C(C1CCN(Cc2ccc(F)cc2)CC1)N1CCN(C/C=C/c2ccccc2)CC1 [CBK264325G],111.152
22,Cc1ccc(CN2CCCN(C(=O)CCn3cnc4c(cnn4C)c3=O)CC2)cc1 [CBK297793],152.422
23,Cc1noc(C)c1C(=O)Nc1sc2c(c1C(=O)NCc1ccco1)CCCCCC2 [CBK268112],148.911
24,Cc1cnn(C2CCN(C(=O)NC(C)C3OCCc4sccc43)C2)c1 (centres unmarked) [CBK304159],125.307
25,Cc1nnc(SCCOc2ccc(Cl)c(C)c2)s1 [CBK026160],118.579

# Structures from the list above that contain a halogen, in the order listed:
row,Compound,% of control remaining [%]
2,CCOC(=O)C(NCc1nc(-c2cccc(C(F)(F)F)c2)no1)C(C)C (centres unmarked) [CBK305445],119.253
3,CC(=O)Nc1ccc(S(=O)(=O)NC2(C(F)(F)F)C(=O)Nc3c2c(=O)[nH]c(=S)n3Cc2ccco2)cc1 (centres unmarked) [CBK268395],137.739
9,O=C(NCCNc1cnccn1)c1ccc(Br)cc1F [CBK305639],155.032
11,Cc1nc2ccc(NC(=O)CC3CCN(S(=O)(=O)c4cccc(F)c4)CC3)cc2[nH]1 [CBK285903],108.46
13,CCN(Cc1ccc(C#N)cc1F)C(=O)C(NC(=O)OC)C(C)C (centres unmarked) [CBK306372],127.293
15,Cc1ccc(C(=O)CCC(=O)N2CCCC2c2ccc(F)cc2)cc1 (centres unmarked) [CBK297885],128.522
17,O=C(Cc1c(O)c2ccccc2[nH]c1=O)NCc1ccc(Cl)cc1 [CBK160317],104.894
19,Cc1ccc(-c2cc(C(=O)Nc3ccc(S(N)(=O)=O)cc3)c3ccc(Cl)c(C)c3n2)cc1 [CBK267745],99.8477
21,O=C(C1CCN(Cc2ccc(F)cc2)CC1)N1CCN(C/C=C/c2ccccc2)CC1 [CBK264325G],111.152
25,Cc1nnc(SCCOc2ccc(Cl)c(C)c2)s1 [CBK026160],118.579

# (next part)

row,Compound,% of control remaining [%]
1,Cc1nccn1CC1(O)CCN(CC(C)c2ccccc2)CC1 (centres unmarked) [CBK284954],136.615
2,Cc1noc(C2(O)CCN(Cc3cccc(Cl)c3F)C2)n1 (centres unmarked) [CBK304748],123.869
3,CCn1c(=O)n(CC(C)(C)O)c2cc(S(=O)(=O)N(C)C)ccc21 [CBK304893],129.046
4,O=C(CCN1C(=O)COc2ccccc21)Nc1ccnn1Cc1ccccc1Br [CBK296740],118.809
5,Cc1cccn2cc(CCNC(=O)CN(C)C3CCSC3)nc12 (centres unmarked) [CBK304027],103.659
6,O=C1CNC(=O)C2(C/C=C/C[C@H]3COCC[C@@H]3N1)CCN(C(=O)c1cccc(Cl)c1)CC2 [CBK292066],131.839
7,CC(C)NC(=O)NC[C@H]1C[C@@H]2CCN1C[C@@H]2c1cc(C2CCCCC2)nn1C [CBK289107],108.699
8,COc1ccc([C@@]23CC[C@@H](NS(=O)(=O)c4ccc5ccccc5c4)C[C@@H]2N(C)CC3)cc1OC [CBK056848T],123.14
9,COc1ccccc1NC(=O)N1C[C@@H]2C[C@H](C1)c1c(-c3ccccc3F)ccc(=O)n1C2 [CBK289192],112.203
10,Cc1nc(C)c(C(=O)N2C3CCC2c2cc(Cl)cnc2C3)s1 (centres unmarked) [CBK284953],103.379
11,Cc1cc(C(=O)NCCC(=O)O)c2ccccc2n1 [CBK286573],118.013
12,Cc1ncccc1COC(=O)N1CCC(C(F)(F)F)CC1 [CBK200154],101.379
13,O=C(NCc1ccccc1)c1ccc2nc[nH]c2c1 [CBK143739],118.164
14,COc1ccnc(N2CCC(Oc3cccnc3N(C)C)C2)n1 (centres unmarked) [CBK304699],134.435
15,Cc1ccc(NC(=O)Cn2cnc3c(cnn3-c3ccc(C)cc3)c2=O)cc1 [CBK287534],122.341
16,Cn1nc(C2CCCC2)cc1[C@H]1CN2CC[C@H]1C[C@@H]2CNS(C)(=O)=O [CBK288742],98.7448
17,CCn1cc(CN(C)Cc2nccs2)c2cc(C(=O)O)ncc21 [CBK306512],137.16
18,Cc1ncccc1COC(=O)N1c2ccccc2CCC1C (centres unmarked) [CBK200204],56.3923
19,N#Cc1ccc(-c2cncc(NC3CCC(O)CC3)n2)cc1 (centres unmarked) [CBK166007T],116.866
20,Cn1ccnc1Sc1nc2ccccc2nc1C(F)(F)F [CBK093778],99.6999
21,N#C/C(=C/c1cc(Cl)c(OCc2ccc([N+](=O)[O-])cc2)c(Cl)c1)c1ccc(C(=O)O)cc1 [CBK269098],137.477
22,CCc1onc(-c2ccccc2)c1C(=O)NCCO [CBK160434],102.108
23,Nc1nn2c(c1Cc1c(Cl)cccc1Cl)OC(=O)CCC2=O [CBK093439],96.4281
24,COc1ccc(C(CC(=O)O)c2ccc3c(c2)OCCO3)cc1OC (centres unmarked) [CBK287121],134.794
25,CC(=O)N1CCCc2cc(NC(=O)NCCc3cnn(C)c3)ccc21 [CBK304937],118.656

# Some of these compounds in order of length of the SMILES, low to high:
row,Compound,% of control remaining [%]
14,COc1ccnc(N2CCC(Oc3cccnc3N(C)C)C2)n1 (centres unmarked) [CBK304699],134.435
16,Cn1nc(C2CCCC2)cc1[C@H]1CN2CC[C@H]1C[C@@H]2CNS(C)(=O)=O [CBK288742],98.7448
21,N#C/C(=C/c1cc(Cl)c(OCc2ccc([N+](=O)[O-])cc2)c(Cl)c1)c1ccc(C(=O)O)cc1 [CBK269098],137.477
